Several values for one entry are separate records, joined by “and”; a condition that tells them apart may be missing. Equal values may be shown once.

The data set in a line: sn-2 fatty acyl composition of TAG by modified lipase digestion. Also on record: species or system Brassica napus. The settings on record: structured TAG standards and line 23-198 oil (Table 7).
Consider `CCCCCCCC/C=C\CCCCCCCC(=O)OCC(COC(=O)CCCCCCC/C=C\CCCCCCCC)OC(=O)CCCCCCCCCCC` [OLaO (sn)], for which the “Mol % 12:0 at sn-2 measured” value is given as 96.3 Mol %. For the molecule `CCCCCCCC/C=C\CCCCCCCC(=O)OC[C@@H](COC(=O)CCCCCCCCCCC)OC(=O)CCCCCCC/C=C\CCCCCCCC` [(R)LaOO], the “Mol % 12:0 at sn-2 measured” value is 2.6 Mol % and 2.1 Mol %. `CCCCCCCC/C=C\CCCCCCCC(=O)OC[C@H](COC(=O)CCCCCCCCCCC)OC(=O)CCCCCCC/C=C\CCCCCCCC` [(S)LaOO]: the “Mol % 12:0 at sn-2 measured” value is 2.5 Mol % and 4.2 Mol %.

These data come from patent publication US5968791A, “Plant lysophosphatidic acid acyltransferases” (Calgene, Inc., priority 1995, dated 1999).
